The nature of this series: Device evaluation of organic light emitting device with the compound as dopant of the light emitting layer. To be noted: current density of 10 mA/cm^2; dopant (6%) with host Compound B in light emitting layer.

Structures are written as SMILES.

Regarding `c1ccc([Si](c2ccccc2)(c2ccccc2)c2ccc(-c3ccc(N(c4ccc(-c5cccc6c5oc5ccccc56)cc4)c4cc5ccc6cccc7ccc(c4)c5c67)cc3)cc2)cc1` [Compound E], the “Current Efficiency” value came out at 1.75 cd/A, the Driving voltage came out at 7.64 V, the Emission wavelength was found to be 436 nm and the Power efficiency was found to be 0.86 lm/W.

With `C[Si](C)(C)c1ccc(-c2ccc(N(c3ccc4ccc5c(N(c6ccc(-c7ccc([Si](C)(C)C)cc7)cc6)c6cccc7c6oc6ccccc67)ccc6ccc3c4c65)c3cccc4c3oc3ccccc34)cc2)cc1` [Compound D], the “Current Efficiency” value was 3.48 cd/A, the Driving voltage was 5.74 V, the Emission wavelength turned out to be 459 nm and the Power efficiency is listed as 1.51 lm/W.

Consider `C[Si](C)(C)c1ccc(N(c2ccccc2)c2ccc3ccc4c(N(c5ccccc5)c5ccc([Si](C)(C)C)cc5)ccc5ccc2c3c54)cc1` [Compound C], for which the “Current Efficiency” value was 3.02 cd/A, the Driving voltage turned out to be 6.22 V, the Emission wavelength is 465 nm and the Power efficiency is reported as 1.94 lm/W.

On to `c1ccc([Si](c2ccccc2)(c2ccccc2)c2ccc(-c3ccc(N(c4ccc(-c5ccc6c(c5)oc5ccccc56)cc4)c4cc5ccc6cccc7ccc(c4)c5c67)cc3)cc2)cc1` [Compound F], for which the “Current Efficiency” value came to 1.46 cd/A, the Driving voltage is listed as 7.59 V, the Emission wavelength stood at 435 nm and the Power efficiency is listed as 0.79 lm/W.

The values above are taken from US11557737B2, “Compound, coating composition comprising same, organic light-emitting element using same, and manufacturing method therefor” (LG Chem, Ltd., priority 2018, dated 2023).
